Only a part is listed here, and it is no random draw. At the low end of the ranking, values are background and their order means little.

This assay deals with T1, ELF3 (UniProt P78545).
T1 sequence: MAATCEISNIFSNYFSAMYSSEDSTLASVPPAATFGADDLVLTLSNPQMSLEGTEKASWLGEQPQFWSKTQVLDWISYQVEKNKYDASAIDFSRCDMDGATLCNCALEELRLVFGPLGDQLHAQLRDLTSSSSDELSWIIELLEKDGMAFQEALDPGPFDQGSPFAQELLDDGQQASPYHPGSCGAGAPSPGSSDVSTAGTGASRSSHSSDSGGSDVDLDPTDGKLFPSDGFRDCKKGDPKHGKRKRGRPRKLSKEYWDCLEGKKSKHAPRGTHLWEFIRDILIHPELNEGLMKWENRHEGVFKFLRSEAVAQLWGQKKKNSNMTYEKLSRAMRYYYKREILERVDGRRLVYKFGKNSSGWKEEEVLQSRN
As to the kind of experiment: DAPPL (digital affinity profiling via proximity ligation, sequencing). The note with it: 10 mM Tris-HCl pH 7.5, 50 mM NaCl, 1 mM DTT, 4% glycerol, room temperature, 30 min; GST-TFs on glutathione beads, 16-mer random dsDNA library, 0.1% …; high values mean tight binding; double strand, one strand shown; scale: fold enrichment (6-mer frequency, TF over GST control).
In turn, ATACAC yielded a binding signal of 1.16.
As for ATTCGC, the figure is 1.27; as for GACACT, 1; as for TGGATT, 0.843.
As for GAAATT, the figure is 1.44; as for ACCTTC, 1.95.
As for TCAAGG, the figure is 0.952; as for TAGTTG, 0.942; as for AGAACA, 0.994.
For CAATGG, the binding signal was determined as 0.958.
With TATATT the figure was 1.58; with ATTGCA, 1.13; with CACACC, 1.02.
The sequence TAAGTA yielded a binding signal of 1.36.
As for GATGCA, the figure is 1.16; as for CCCGTA, 1.14.
Take TGGCTC: the binding signal is 1.44.
CTTCTC: the binding signal was 1.47.
As to CGGTTC, the binding signal was 1.33.
For the sequence TCTATT, the binding signal was 1.35.
AGTTCT displayed a binding signal of 1.17.
With CTACAA the figure was 1.03; with GAAGAA, 1.26; with TACTAT, 1.2.
As for GGATGC, the figure is 1.13; as for ATATTT, 1.54.
With ATACTC the figure was 1.23.
As for GGTGTT, the binding signal turned out to be 1.03.
With AAATGC the figure was 1.35; with GTTACT, 1.4.
The sequence GTTATG yielded a binding signal of 1.25.
With AATGGT the figure was 1.25; with TGATCC, 1.1; with CACCCT, 1.08.
With TACAAT the figure was 1.36.
As for TTGATC, the figure is 1.01; as for TTCTAG, 1.42; as for CATTCG, 1.25.
Regarding GACCGG, the binding signal was 1.14.
